# Percent effect of library compounds

Mtb glucose medium: 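Whole-cell growth test on Mycobacterium tuberculosis, read after 3 days in glucose-containing 7H9 medium; the read-out is not stated. Concentration: 500 µM. Higher reads as more growth inhibition (inferred: compounds with an IC50 in retests scored well above the rest). Size under these conditions: about 18,000 compounds, about 1,400 of them at 50% or above in at least one test.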
Mtb cholesterol medium: 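Phenotypic screen: M. tuberculosis growth, cholesterol and DPPC medium, 4 days; the read-out is not stated. Tested at 500 µM. Higher reads as more growth inhibition (inferred: compounds with an IC50 in retests scored well above the rest). About 18,000 compounds were tested under these conditions; 5% (about 900) showed 50% or more at least once.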

Each number is a percent effect as filed. The controls that fix the scale are not given in the record; negative values are as filed. The compounds are a random part of those screened.

Nc1nc2ccc(C(=O)N3CCNCC3)cc2o1 gave Mtb glucose medium: 8.672%; Mtb cholesterol medium: 1.311%.
CN1CCCN(CC(=O)NCCCc2ncc[nH]2)CC1 gave Mtb glucose medium: 11.66%; Mtb cholesterol medium: 0.968%.
NC(=O)c1ccc(C(=O)Nc2ccc(F)c(F)c2)cc1 gave Mtb glucose medium: -6.921%; Mtb cholesterol medium: -6.42%.
CC(=O)N(C)C1CCN(C(=O)CCC(C)C)CC1 gave Mtb glucose medium: 32.22%; Mtb cholesterol medium: 16.37%.
COc1ccccc1N1CCCC(N)C1 (stereo not drawn) gave Mtb glucose medium: 37.55%; Mtb cholesterol medium: 5.703%.
CN(CCCOc1ccc(Cl)cc1)CC(N)=O gave Mtb glucose medium: 32.28%; Mtb cholesterol medium: 40.09%.
c1ccc2c(c1)CCC21CNCCO1 (stereo not drawn) gave Mtb glucose medium: 5.814%; Mtb cholesterol medium: 7.647%.
CCN(Cc1ccco1)C(=O)c1csc(NC(C)=O)n1 gave Mtb glucose medium: 24.43%; Mtb cholesterol medium: 6.05%.
CC1CCCCN1C(=O)NCCNC(=O)c1ccn[nH]1 (stereo not drawn) gave Mtb glucose medium: 7.117%; Mtb cholesterol medium: 8.056%.
CCNC(=O)CCc1ccccc1F gave Mtb glucose medium: 20.67%; Mtb cholesterol medium: 12.94%.
Cc1cc(C2CCCN2C(=O)[C@@H]2CCCN2)on1 (stereo partly drawn) gave Mtb glucose medium: -7.496%; Mtb cholesterol medium: -14.43%.
COC(CN)CC(C)C (stereo not drawn) gave Mtb glucose medium: 8.302%; Mtb cholesterol medium: -1.371%.
CC(N)C(=O)NCCN(C)C (stereo not drawn) gave Mtb glucose medium: 10.12%; Mtb cholesterol medium: 6.678%.
COc1ccc(C(=O)N2CCC(N)CC2)c(OC)c1 gave Mtb glucose medium: -1.604%; Mtb cholesterol medium: -0.4473%.
CCn1c(CN(C)CCSC)nnc1[C@H]1C[C@@H](N)C1 gave Mtb glucose medium: -4.532%; Mtb cholesterol medium: -9.418%.
O=C1NCCN1C1CCN(Cc2ccc(Br)o2)CC1 gave Mtb glucose medium: 17.27%; Mtb cholesterol medium: 16.37%.
O=C(NCCOc1cccc2cccnc12)C1CC1 gave Mtb glucose medium: 25.62%; Mtb cholesterol medium: 0.4277%.
CC1CCN(C(=O)NCCS(=O)(=O)C(C)(C)C)C1 (stereo not drawn) gave Mtb glucose medium: -8.331%; Mtb cholesterol medium: -9.852%.
CN(C)S(=O)(=O)N1CCCC1c1ccccc1Br (stereo not drawn) gave Mtb glucose medium: 80.91%; Mtb cholesterol medium: 57.16%.
CC(c1ccccn1)N(C)C(=O)c1cscn1 (stereo not drawn) gave Mtb glucose medium: -12.83%; Mtb cholesterol medium: -18.2%.
CNS(=O)(=O)CCNC(=O)CCCc1ccc(Cl)cc1 gave Mtb glucose medium: 33.47%; Mtb cholesterol medium: 5.099%.
CN1CCC(N(C)CC(O)COCc2cccs2)CC1 (stereo not drawn) gave Mtb glucose medium: 11.02%; Mtb cholesterol medium: 12.75%.
CCOc1ccc(CN2CCC(O)CC2)cc1 gave Mtb glucose medium: 17.35%; Mtb cholesterol medium: 16.3%.
CCN1CCC(CNC(=O)N(C)Cc2cc(C)on2)C1 (stereo not drawn) gave Mtb glucose medium: 29.39%; Mtb cholesterol medium: 11.99%.
COc1cccc(CNCCn2cccn2)c1OC gave Mtb glucose medium: 66.05%; Mtb cholesterol medium: 21.21%.
CS(=O)(=O)N1CCCC(C(=O)Nc2cccnc2O)C1 (stereo not drawn) gave Mtb glucose medium: 6.685%; Mtb cholesterol medium: 5.8%.
COCCN(CCC#N)Cc1nc2ccccc2n1C gave Mtb glucose medium: 24.64%; Mtb cholesterol medium: 7.989%.
CC(C)(C)C(=O)Cc1ccncc1 gave Mtb glucose medium: -5.572%; Mtb cholesterol medium: -17.34%.
CCCc1nc(C(=O)N2CC(c3ccncc3)C2)cs1 gave Mtb glucose medium: 75.62%; Mtb cholesterol medium: 65.14%.
CN[C@@H]1CN(C(=O)OC(C)(C)C)C[C@H]1O gave Mtb glucose medium: 1.205%; Mtb cholesterol medium: 2.761%.
CN(C)CCOc1cnccc1CN gave Mtb glucose medium: 1.508%; Mtb cholesterol medium: -4.2%.
CN(C)C(=O)C1CCCN1C(=O)CC(C)(C)C (stereo not drawn) gave Mtb glucose medium: -16.56%; Mtb cholesterol medium: -23.04%.
CCSCCNC(=O)c1ccccc1C1CCNC1 (stereo not drawn) gave Mtb glucose medium: 30.41%; Mtb cholesterol medium: 20.85%.
CCC(C(=O)Nc1ccc(OC)cc1)N(C)C (stereo not drawn) gave Mtb glucose medium: 12.84%; Mtb cholesterol medium: -2.672%.
CC(=O)NCCCNCc1cccc(Cl)c1F gave Mtb glucose medium: 41.01%; Mtb cholesterol medium: 19.07%.
Ic1cnnn1C1CCNCC1 gave Mtb glucose medium: 7.877%; Mtb cholesterol medium: 0.09892%.
Nc1nc(CCCNC(=O)Cc2ccsc2)cs1 gave Mtb glucose medium: 54.5%; Mtb cholesterol medium: 19.05%.
O=C(CCC(=O)c1ccc(F)cc1)NCc1ccco1 gave Mtb glucose medium: 65.06%; Mtb cholesterol medium: 46.5%.
COc1ccc(CO)cn1 gave Mtb glucose medium: 6.055%; Mtb cholesterol medium: 4.018%.
CN(C)c1ncccc1CNc1nnc(C(F)F)o1 gave Mtb glucose medium: 26.96%; Mtb cholesterol medium: 22.53%.
CN(C(=O)c1ccncc1)c1ncccc1Br gave Mtb glucose medium: 0.8151%; Mtb cholesterol medium: 3.988%.
CC(C)n1cc(NC(=O)c2cccnc2N(C)C)cn1 gave Mtb glucose medium: 20.6%; Mtb cholesterol medium: 4.615%.
CC(=O)NC1CNC1 gave Mtb glucose medium: 4.707%; Mtb cholesterol medium: 2.104%.
CCNC(=O)C1CCN(Cc2ccc(F)cc2)CC1 gave Mtb glucose medium: -13.96%; Mtb cholesterol medium: 4.711%.

Once more, the final 5:

* CN(C)c1ncccc1CNc1nnc(C(F)F)o1 : Mtb glucose medium: 26.96%; Mtb cholesterol medium: 22.53%
* CN(C(=O)c1ccncc1)c1ncccc1Br : Mtb glucose medium: 0.8151%; Mtb cholesterol medium: 3.988%
* CC(C)n1cc(NC(=O)c2cccnc2N(C)C)cn1 : Mtb glucose medium: 20.6%; Mtb cholesterol medium: 4.615%
* CC(=O)NC1CNC1 : Mtb glucose medium: 4.707%; Mtb cholesterol medium: 2.104%
* CCNC(=O)C1CCN(Cc2ccc(F)cc2)CC1 : Mtb glucose medium: -13.96%; Mtb cholesterol medium: 4.711%

Measurements from “University of Dundee, Small-Polar-MMV Screening Library” (2021), ChEMBL document CHEMBL3988442.